Data as given in PubChem BioAssay AID1259405 (NCATS, 2018)

- Screen: 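Silenced genes that increase secreted GFP made by CHO cells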 (primary screen)
- Cells: Chinese hamster CHO-K1 ovary cells with stable secreted eGFP expression
- Reagent: single siRNA against mouse genes, 0.8 pmol siRNA per well (2 µl of 400 nM stock)
- Duration: 3 days
- Measurement: 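Per-well intracellular GFP measured by laser scanning cytometry, plus viability from ATP luminescence, each relative to plate median of non-targeting control wells, in %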
- Direction: GFP, % of control: higher = more GFP per well, higher productivity; viability (ATP), % of control: higher = more viable cells (more ATP)
- Rule for the call: 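a knock-down is called active if GFP reaches 120% or more of non-targeting control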
Here is a random part of about 50,000 deposited reagents. Of all reagents, about 4,000 (8%) were called active. 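Mouse siRNA library applied to hamster cells; one well for each siRNA.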 Entries without a mark were called inactive.

Depletion of Serinc5 (serine incorporator 5) [SID363544103] gave: GFP, % of control 75.3; viability (ATP), % of control 70.
With knock-down of Serinc5 (serine incorporator 5) [SID363550431] the results were GFP, % of control 64.9; viability (ATP), % of control 75.1.
Against Serinc5 (serine incorporator 5) [SID363556980] the deposit lists GFP, % of control 35.8; viability (ATP), % of control 56.5.
Bloc1s5 [SID363581840] scored GFP, % of control 72.3; viability (ATP), % of control 44.2.
With knock-down of Bloc1s5 [SID363589334], the screen gave GFP, % of control 108; viability (ATP), % of control 92.8.
For Slc6a2 [SID363574739], the values are GFP, % of control 75.4; viability (ATP), % of control 82.2.
For Slc6a2 [SID363575795], the values are GFP, % of control 95.4; viability (ATP), % of control 70.9.
Slc6a2 [SID363580371] scored GFP, % of control 91.8; viability (ATP), % of control 93.7.
Chek1 (checkpoint kinase 1) [SID363570811] showed GFP, % of control 80.5; viability (ATP), % of control 73.7.

Limited to “GFP, % of control” (2 entries from above):
Bloc1s5 [SID363581840]	72.3
Bloc1s5 [SID363589334]	108

The results go on.
After knock-down of Wdr62 (WD repeat domain 62) [SID363543621], the record shows GFP, % of control 44.6; viability (ATP), % of control 75.3.
Wdr62 (WD repeat domain 62) [SID363553114] showed GFP, % of control 44.8; viability (ATP), % of control 39.6.
After knock-down of Wdr62 (WD repeat domain 62) [SID363558962], the record shows GFP, % of control 49.8; viability (ATP), % of control 76.3.
Against Satb2 (special AT-rich sequence binding protein 2) [SID363573540], the values are GFP, % of control 67.6; viability (ATP), % of control 67.2.
Against Satb2 (special AT-rich sequence binding protein 2) [SID363581284], the entry reads GFP, % of control 126 (active); viability (ATP), % of control 72.7.
After knock-down of Satb2 (special AT-rich sequence binding protein 2) [SID363583748], the screen gave GFP, % of control 72.1; viability (ATP), % of control 87.2.
Knock-down of Clpp [SID363574577] resulted in: GFP, % of control 72.2; viability (ATP), % of control 103.
Clpp [SID363575633] gave GFP, % of control 72.2; viability (ATP), % of control 72.4.
Silencing of Clpp [SID363580209] gave: GFP, % of control 66.7; viability (ATP), % of control 77.
